Values from PubChem BioAssay AID493246 (Drosophila RNAi Screening Center, 2011)

Aim: 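Genes fly cells need to grow and stay alive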 (primary screen)
System: Drosophila Kc and S2R+ cells
Reagents: long dsRNA against Drosophila genes
Measurement: 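Raw, unnormalised count of remaining cells in each well; per-plate z-scores of cell number underlie the calls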
Reading the numbers: Kc cell number and S2R+ cell number: higher = more cells remaining
Hit rule: 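Counted as a hit if cell number falls by a z-score of at least 3 within its plate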
The screen tested about 21,000 reagents; shown is a random part of those with a known target gene and a result. Over the whole deposit, 429 (2%) are marked active. 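Values are raw and not normalised between plates; calls rest on per-plate z-scores that were not deposited.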 No sequences are given here. The record does not give: the amount of reagent, the time to read-out.

Depletion of CG31343 (GeneID 326133) [DRSC15887] resulted in: Kc cell number, rep 1 = 1.44e6; Kc cell number, rep 2 = 1.47e6; S2R+ cell number, rep 1 = 1.11e6; S2R+ cell number, rep 2 = 1.18e6; inactive.
With knock-down of Eaat1 (GeneID 34251) [DRSC03321] the results were Kc cell number, rep 1 = 1.59e6; Kc cell number, rep 2 = 1.70e6; S2R+ cell number, rep 1 = 1.27e6; S2R+ cell number, rep 2 = 1.45e6; inactive.
Against CAH14 (GeneID 37359) [DRSC04234], the entry reads Kc cell number, rep 1 = 1.59e6; Kc cell number, rep 2 = 1.69e6; S2R+ cell number, rep 1 = 1.29e6; S2R+ cell number, rep 2 = 4.42e5; inactive.
Against Dredd (GeneID 31011) [DRSC18461], the values are Kc cell number, rep 1 = 5.36e5; S2R+ cell number, rep 1 = 8.54e5; inactive.

2 neighbouring entries already listed, for reference:
CAH14 (GeneID 37359) [DRSC04234] → Kc cell number, rep 1: 1.59e6; Kc cell number, rep 2: 1.69e6; S2R+ cell number, rep 1: 1.29e6; S2R+ cell number, rep 2: 4.42e5; activity call: inactive
Dredd (GeneID 31011) [DRSC18461] → Kc cell number, rep 1: 5.36e5; S2R+ cell number, rep 1: 8.54e5; activity call: inactive

Continued.
Silencing of CG13028 (GeneID 2768967) [DRSC09908] came out at: Kc cell number, rep 1 = 1.41e6; Kc cell number, rep 2 = 1.54e6; S2R+ cell number, rep 1 = 1.33e6; S2R+ cell number, rep 2 = 1.35e6; inactive.
Sodq (GeneID 43133) [DRSC15924] showed Kc cell number, rep 1 = 1.31e6; Kc cell number, rep 2 = 1.34e6; S2R+ cell number, rep 1 = 9.59e5; S2R+ cell number, rep 2 = 1.05e6; inactive.
For Pp1-87B (GeneID 49260) [DRSC16794], the entry reads Kc cell number, rep 1 = 1.24e6; Kc cell number, rep 2 = 1.32e6; S2R+ cell number, rep 1 = 8.11e5; S2R+ cell number, rep 2 = 8.93e5; inactive.
NT5E-2 (GeneID 246458) [DRSC06893] gave Kc cell number, rep 1 = 1.24e6; Kc cell number, rep 2 = 1.32e6; S2R+ cell number, rep 1 = 1.08e6; S2R+ cell number, rep 2 = 1.12e6; inactive.
Depletion of Fancl (GeneID 41231) [DRSC14550] came out at: Kc cell number, rep 1 = 1.90e6; Kc cell number, rep 2 = 1.96e6; S2R+ cell number, rep 1 = 1.47e6; S2R+ cell number, rep 2 = 1.58e6; inactive.
With knock-down of CG42542 (GeneID 8674000) [DRSC15549] the results were Kc cell number, rep 1 = 1.76e6; Kc cell number, rep 2 = 1.77e6; S2R+ cell number, rep 1 = 1.23e6; S2R+ cell number, rep 2 = 1.30e6; inactive.
CG42346 (GeneID 3355160) [DRSC20622] gave Kc cell number, rep 1 = 1.53e6; Kc cell number, rep 2 = 1.60e6; S2R+ cell number, rep 1 = 1.09e6; S2R+ cell number, rep 2 = 1.19e6; inactive.
After knock-down of CG42346 (GeneID 3355160) [DRSC20644], the record shows Kc cell number, rep 1 = 1.65e6; Kc cell number, rep 2 = 1.66e6; S2R+ cell number, rep 1 = 1.09e6; S2R+ cell number, rep 2 = 1.22e6; inactive.
For nAChRalpha3 (GeneID 31767) [DRSC18800] the deposit lists Kc cell number, rep 1 = 1.49e6; Kc cell number, rep 2 = 1.42e6; S2R+ cell number, rep 1 = 1.07e6; S2R+ cell number, rep 2 = 1.15e6; inactive.
For CG17292 (GeneID 34152) [DRSC02594], the entry reads Kc cell number, rep 1 = 1.18e6; Kc cell number, rep 2 = 1.47e6; S2R+ cell number, rep 1 = 2.20e5; S2R+ cell number, rep 2 = 1.85e5; inactive.
